# The other results are listed elsewhere or left out.
# B1: Epa8 (Candida glabrata) (protein)
# chain: MGSSHHHHHHSSGLVPRGSHMASSRALSDYPLGCSPLLGTKLTPGLSMELYEYPLDNHGIGPHCWDPAYLNPEYPRTGFESHKLIGTAQNVMSLNFEHRTQDCHVEFSNLPASFNFPDQITLTNFTMLLYGYFKPKESGRYRFHMEADDLLLMNLGAGNAFDCCAHEATRNNLGDYIAYDIWAGTRKDVEVFLEKEVFYPLRLFFNNRDGRAALDFSYYLNGATEPGTDIPELLFSLPDGESCPAYI
# Tests used:
# Assay in all cases: glycan array binding signal (z-score within array); higher = stronger binding
# Details in all cases: glycan notation: IUPAC condensed, linker removed
# [1] = molecular target: Neu5Gc(a2-8)Neu5Gc(a2-3)Gal(b1-4)GlcNAc(b1-3)Gal(b1-4)GlcNAc
# Method in brief: (§1)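 Glycan array data came from 3228 arrays in the Consortium for Functional Glycomics database, and only arrays with an available protein sequence were kept. Glycan names were put into IUPAC-condensed notation, and columns mapping to the same glycan were averaged. The binding signal is a within-array Z-score, averaged across arrays of one protein sequence run at different concentrations or buffers and across linkers. A negative Z-score can be read as non-binding.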
# [2] = molecular target: Neu5Gc(a2-8)Neu5Gc(a2-6)Gal(b1-4)GlcNAc
# Method in brief: as §1
# [3] = molecular target: Neu5Gc(b2-6)Gal(b1-4)GlcNAc
# Method in brief: as §1
binder,measurement,setting,value
B1,glycan array binding signal (z-score),[1],-0.607
same,glycan array binding signal (z-score),[2],-0.62
same,glycan array binding signal (z-score),[3],-0.258
